Laboratory results reported in paper PMC11742690.

Chains of the proteins cited; added tags and fusions are not shown.
UniProt Q13485: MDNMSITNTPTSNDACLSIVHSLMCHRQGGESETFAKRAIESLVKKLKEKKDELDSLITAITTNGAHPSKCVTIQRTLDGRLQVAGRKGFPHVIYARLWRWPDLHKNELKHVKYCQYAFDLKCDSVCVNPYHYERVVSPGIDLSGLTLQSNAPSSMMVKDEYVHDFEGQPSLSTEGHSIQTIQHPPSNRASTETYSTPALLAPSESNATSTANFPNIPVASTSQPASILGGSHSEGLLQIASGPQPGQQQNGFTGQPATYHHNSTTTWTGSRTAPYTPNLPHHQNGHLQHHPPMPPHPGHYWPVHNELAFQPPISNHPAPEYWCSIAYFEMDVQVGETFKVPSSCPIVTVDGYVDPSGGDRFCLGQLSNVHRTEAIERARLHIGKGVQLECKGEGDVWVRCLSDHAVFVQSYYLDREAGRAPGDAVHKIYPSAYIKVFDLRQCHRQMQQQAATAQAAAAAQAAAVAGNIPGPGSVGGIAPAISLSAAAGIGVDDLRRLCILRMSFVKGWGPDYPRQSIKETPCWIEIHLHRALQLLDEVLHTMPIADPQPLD
UniProt Q15796: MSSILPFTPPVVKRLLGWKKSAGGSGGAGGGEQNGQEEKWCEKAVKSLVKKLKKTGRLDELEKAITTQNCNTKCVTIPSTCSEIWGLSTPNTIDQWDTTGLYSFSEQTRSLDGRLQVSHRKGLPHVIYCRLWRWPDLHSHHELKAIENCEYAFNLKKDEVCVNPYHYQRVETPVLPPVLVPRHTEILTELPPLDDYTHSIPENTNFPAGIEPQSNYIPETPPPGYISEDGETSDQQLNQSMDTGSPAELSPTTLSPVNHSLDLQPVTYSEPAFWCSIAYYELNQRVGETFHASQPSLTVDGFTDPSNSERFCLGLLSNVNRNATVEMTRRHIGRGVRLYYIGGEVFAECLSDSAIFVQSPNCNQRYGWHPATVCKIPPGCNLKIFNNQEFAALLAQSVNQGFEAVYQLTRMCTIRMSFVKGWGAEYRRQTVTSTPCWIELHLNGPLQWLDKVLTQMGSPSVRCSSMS

Target: T1, AMDHD1-3×FLAG (stably overexpressed, AMDHD1-OV cells) (UniProt Q96NU7)
T1 sequence: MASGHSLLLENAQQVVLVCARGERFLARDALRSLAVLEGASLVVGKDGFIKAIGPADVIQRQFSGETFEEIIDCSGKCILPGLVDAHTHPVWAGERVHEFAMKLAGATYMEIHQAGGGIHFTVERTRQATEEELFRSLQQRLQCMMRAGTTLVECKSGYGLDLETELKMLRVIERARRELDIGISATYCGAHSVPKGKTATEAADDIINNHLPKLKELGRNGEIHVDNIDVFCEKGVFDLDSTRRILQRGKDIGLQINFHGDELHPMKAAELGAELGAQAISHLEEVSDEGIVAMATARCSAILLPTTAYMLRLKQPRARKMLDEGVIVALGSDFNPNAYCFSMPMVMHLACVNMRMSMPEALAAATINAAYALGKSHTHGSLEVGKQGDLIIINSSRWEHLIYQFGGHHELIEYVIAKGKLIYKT
Experiment: affinity purification with mass spectrometry; immunoprecipitation of AMDHD1 from AMDHD1-OV cells; bands cut from a Coomassie Blue gel, digested, Q Exactive HF-X

| Substance | binding |
| --- | --- |
| SMAD4 (endogenous, CCA cells) (from UniProt Q13485 1-552) | binds |
| SMAD2 (endogenous, CCA cells) (from UniProt Q15796 1-467) | binds |

Results are given in words; binding and its absence hold for the method and conditions named. Binding seen in cells or lysates may run through a third protein. Here binding means that the protein was enriched with, or labelled near, the bait; the list need not be complete. Tags and fused reporters may be left off the sequences shown.
